Earlier results as cited in patent publication US20030031715A1, “Pharmaceutical applications of hydrotropic agents, polymers thereof, and hydrogels thereof” (priority 2000, published 2003).

Conditions: log (CO/CW), octanol and water; cited from earlier work

## C(=C\c1ccccc1)/CN1CCN(C(c2ccccc2)c2ccccc2)CC1 [Cinnarizine]
  Partition Coefficient: 4.50
